Measured values published in PMC4738175 (Cancer letters, 2015).

How the values were obtained:
[1] = tested on: phosphorylation of MEK1/2 and ERK1/2; assay: Western blot of phosphorylated MEK1/2 and ERK1/2 in PK03 cells; assay type: cell-based, mouse; details: PK03 cells, 3, 10 or 30μM, 24 hours
phosphorylated ERK1/2 = assay: Immunohistochemical staining of phosphorylated ERK1/2 in PK03 tumors; details: 10mg/kg, n = 3 mice/group, vs PK03 control
phosphorylation of c-RAF = assay: Western blot of phosphorylated c-RAF in PK03 cells; assay type: cell-based, mouse; details: PK03 cells, 3, 10 or 30μM, 24 hours

O=C(NC12CC3CC(CC(C3)C1)C2)N[C@H]1CC[C@H](Oc2ccc(C(=O)O)cc2)CC1 [t-AUCB, trans/-4-[4-(3-adamantan-1-yl-ureido)-cyclohexyloxy]-benzoic acid]
inhibition of phosphorylation of MEK1/2 and ERK1/2 [1]: but not by t-AUCB
staining intensity of phosphorylated ERK1/2 (phosphorylated ERK1/2): but not t-AUCB treated tumors
inhibition of phosphorylation of c-RAF (phosphorylation of c-RAF): but not by sorafenib or t-AUCB
